From patent publication US20250295610A1, “NEUROPROTECTIVE AGENTS FOR USE IN THE TREATMENT OF OPTIC NEUROPATHIES” (The Board of Trustees of the Leland Stanford Junior …, priority 2021, published 2025)

Test system: CHOP promoter-driven luciferase (CHOP-Luc) in HEK293T cells
Test: CHOP-Luc reporter cell-based assay (HTS and retest)
Design: species or system human
Conditions: Tm/Tg 1 μM, 24 hours
Description: ER stress reporter cell lines.
Cell-based HTS. The HTS to identify CHOP expression inhibitors was performed at the Stanford High-Throughput Bioscience Center with small molecule libraries containing 4846 total known bioactive, FDA approved drugs and clinical trial compounds; libraries included Biomol FDA, Biomol ICCB, Microsource (MS) Spectrum, Sigma LOPAC, and NIH Clinical Collection (NIH-CC). All the compounds were run in 7-point dose response based on a previous publication; except the NIH Clinical collection (446 compounds) which were tested in duplicate due to the small quantity of compounds on hand. Most of the NIH-CC was screened at 10 µM, but this varied per compound. The Z′ of the assay was 0.5, details on instrumentation can be found here: https://med.stanford.edu/htbc/equipment/liquid.html. We used the Pin Tool to transfer 100 nL of the compounds into 50 μL final volume. […] AeraSeal sterile adhesive microplate seals (Excel Scientific; Victorville, CA) were used to seal plates that were incubated at 5% CO2, 37° C. for 24 hours, when luciferase activity was assayed by adding 10 μL of Bright™-Glo Luciferase reagent (Promega) to each well and detected by a Tecan Infinite M1000 Pro plate reader. […] Luciferase activity of all the tested compounds was determined by meta-analysis of luciferase activity in different cell lines under the control of a generic or other promoters. […]

Compound	IC50 of CHOP-Luc activity (compared among the three hit compounds)	CHOP-luciferase activity induced by ER stress (Tm/Tg) (compound at 10 µM, relative to DMSO (FIG. 1d))
CNCCCC12CCC(c3ccccc31)c1ccccc12 [maprotiline]	the lowest IC50	
Clc1ccc2c(c1)CCc1cccnc1C2=C1CCNCC1 [desloratadine]		significantly inhibited
